{"source": "PubChem BioAssay AID504764 (Drosophila RNAi Screening Center, 2011)", "screen": "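Genome-wide screen for regulators of Notch-driven gene expression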 (primary screen)", "system": "Drosophila Kc167 cells", "reagents": "long dsRNA against Drosophila genes", "duration": "about 5 days (4 days dsRNA, then 24 h after transfection)", "challenge": "transfection of constitutively active membrane-tethered Notch lacking the extracellular domain, read 24 h later", "detection": "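Light from a Notch-responsive E(spl)m3 luciferase reporter under active Notch, with control-promoter and no-Notch reporter wells to normalise; raw counts from paired wells a and b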", "reading the numbers": "induced reporter light, run 1, well a and induced reporter light, run 1, well b: higher = more light from the Notch target reporter with active Notch; control promoter light, run 1, well a and control promoter light, run 1, well b: higher = more light from the viral control promoter (cell number, transfection, viability); uninduced reporter light, run 1, well a: higher = more light from the Notch target reporter without active Notch", "rule for the call": "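Wells with low control signal or poorly matching duplicates excluded; duplicates averaged; per source plate, z beyond ±2 for induced/control log2 ratio or beyond ±1.8 for induced/uninduced marks a hit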", "meaning of the calls": "active = modifier hit (raised or lowered Notch signal); inactive = not a hit", "note": "In all, the deposit lists about 22,000 reagents; this is a random part of those that have a named target and a result. In the full data, 403 (1.9%) got an active call. 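Unnormalised raw counts per well; ratio z-scores behind the hit calls and whether each hit raises or lowers signal are not deposited.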 A plus sign joins genes that one reagent is predicted to hit. No sequences are given here. Not stated in the record: the amount of reagent."}
{"target":"GatC + PolG2","amplicon":"DRSC03312","induced reporter light, run 1, well a":2.20e5,"induced reporter light, run 1, well b":2.07e5,"control promoter light, run 1, well a":1.91e5,"control promoter light, run 1, well b":1.75e5,"uninduced reporter light, run 1, well a":16000,"Call":"inactive"}
{"target":"CG15083","amplicon":"DRSC06514","induced reporter light, run 1, well a":1.30e5,"induced reporter light, run 1, well b":89030,"control promoter light, run 1, well a":96190,"control promoter light, run 1, well b":1.14e5,"uninduced reporter light, run 1, well a":8975,"Call":"inactive"}
{"target":"CG12099","amplicon":"DRSC08253","induced reporter light, run 1, well a":97540,"induced reporter light, run 1, well b":1.09e5,"control promoter light, run 1, well a":1.79e5,"control promoter light, run 1, well b":2.39e5,"uninduced reporter light, run 1, well a":10640,"Call":"active"}
{"target":"GluRS-m","amplicon":"DRSC10431","induced reporter light, run 1, well a":1.32e5,"induced reporter light, run 1, well b":1.09e5,"control promoter light, run 1, well a":1.28e5,"control promoter light, run 1, well b":1.47e5,"uninduced reporter light, run 1, well a":7140,"Call":"inactive"}
{"target":"CG7059","amplicon":"DRSC16187","induced reporter light, run 1, well a":2.22e5,"induced reporter light, run 1, well b":1.89e5,"control promoter light, run 1, well a":2.31e5,"control promoter light, run 1, well b":2.12e5,"uninduced reporter light, run 1, well a":15075,"Call":"inactive"}
{"target":"tfc","amplicon":"DRSC07953","induced reporter light, run 1, well a":1.71e5,"induced reporter light, run 1, well b":1.54e5,"control promoter light, run 1, well a":1.45e5,"control promoter light, run 1, well b":1.34e5,"uninduced reporter light, run 1, well a":15275,"Call":"inactive"}
{"target":"tfc","amplicon":"DRSC07954","induced reporter light, run 1, well a":1.80e5,"induced reporter light, run 1, well b":1.54e5,"control promoter light, run 1, well a":1.23e5,"control promoter light, run 1, well b":1.32e5,"uninduced reporter light, run 1, well a":14875,"Call":"inactive"}
{"target":"tfc","amplicon":"DRSC08626","induced reporter light, run 1, well a":1.08e5,"induced reporter light, run 1, well b":1.22e5,"control promoter light, run 1, well a":1.97e5,"control promoter light, run 1, well b":2.02e5,"uninduced reporter light, run 1, well a":8075,"Call":"inactive"}
{"target":"CG13562","amplicon":"DRSC04200","induced reporter light, run 1, well a":1.87e5,"induced reporter light, run 1, well b":1.65e5,"control promoter light, run 1, well a":1.70e5,"control promoter light, run 1, well b":1.48e5,"uninduced reporter light, run 1, well a":11105,"Call":"inactive"}
{"target":"CG5550","amplicon":"DRSC06943","induced reporter light, run 1, well a":89520,"induced reporter light, run 1, well b":97375,"control promoter light, run 1, well a":1.57e5,"control promoter light, run 1, well b":2.14e5,"uninduced reporter light, run 1, well a":9725,"Call":"inactive"}
{"target":"CG1789","amplicon":"DRSC18140","induced reporter light, run 1, well a":2.20e5,"induced reporter light, run 1, well b":1.96e5,"control promoter light, run 1, well a":2.56e5,"control promoter light, run 1, well b":2.09e5,"uninduced reporter light, run 1, well a":13180,"Call":"inactive"}
{"target":"CG7800","amplicon":"DRSC16315","induced reporter light, run 1, well a":57050,"induced reporter light, run 1, well b":80895,"control promoter light, run 1, well a":81570,"control promoter light, run 1, well b":54575,"uninduced reporter light, run 1, well a":6210,"Call":"inactive"}
{"target":"ct","amplicon":"DRSC18757","induced reporter light, run 1, well a":44205,"induced reporter light, run 1, well b":53280,"control promoter light, run 1, well a":54935,"control promoter light, run 1, well b":53965,"uninduced reporter light, run 1, well a":3932,"Call":"inactive"}

Next part; the last 3 above are carried over.
{"target":"CG1789","amplicon":"DRSC18140","induced reporter light, run 1, well a":2.20e5,"induced reporter light, run 1, well b":1.96e5,"control promoter light, run 1, well a":2.56e5,"control promoter light, run 1, well b":2.09e5,"uninduced reporter light, run 1, well a":13180,"Call":"inactive"}
{"target":"CG7800","amplicon":"DRSC16315","induced reporter light, run 1, well a":57050,"induced reporter light, run 1, well b":80895,"control promoter light, run 1, well a":81570,"control promoter light, run 1, well b":54575,"uninduced reporter light, run 1, well a":6210,"Call":"inactive"}
{"target":"ct","amplicon":"DRSC18757","induced reporter light, run 1, well a":44205,"induced reporter light, run 1, well b":53280,"control promoter light, run 1, well a":54935,"control promoter light, run 1, well b":53965,"uninduced reporter light, run 1, well a":3932,"Call":"inactive"}
{"target":"kay","amplicon":"DRSC13962","induced reporter light, run 1, well a":1.80e5,"induced reporter light, run 1, well b":1.73e5,"control promoter light, run 1, well a":1.34e5,"control promoter light, run 1, well b":1.53e5,"uninduced reporter light, run 1, well a":12820,"Call":"inactive"}
{"target":"kay","amplicon":"DRSC15048","induced reporter light, run 1, well a":9020,"induced reporter light, run 1, well b":8188,"control promoter light, run 1, well a":14635,"control promoter light, run 1, well b":14605,"uninduced reporter light, run 1, well a":3270,"Call":"inactive"}
{"target":"kay","amplicon":"DRSC16977","induced reporter light, run 1, well a":79785,"induced reporter light, run 1, well b":95250,"control promoter light, run 1, well a":64430,"control promoter light, run 1, well b":71235,"uninduced reporter light, run 1, well a":8165,"Call":"active"}
{"target":"CG2652","amplicon":"DRSC18501","induced reporter light, run 1, well a":44250,"induced reporter light, run 1, well b":60955,"control promoter light, run 1, well a":71910,"control promoter light, run 1, well b":77510,"uninduced reporter light, run 1, well a":3885,"Call":"inactive"}
{"target":"Oli","amplicon":"DRSC02866","induced reporter light, run 1, well a":2.66e5,"induced reporter light, run 1, well b":2.65e5,"control promoter light, run 1, well a":2.50e5,"control promoter light, run 1, well b":1.97e5,"uninduced reporter light, run 1, well a":20105,"Call":"inactive"}
{"target":"Crys","amplicon":"DRSC03294","induced reporter light, run 1, well a":1.66e5,"induced reporter light, run 1, well b":1.91e5,"control promoter light, run 1, well a":1.39e5,"control promoter light, run 1, well b":1.64e5,"uninduced reporter light, run 1, well a":13485,"Call":"inactive"}
{"target":"CG13036 (retired record)","amplicon":"DRSC09916","induced reporter light, run 1, well a":1.71e5,"induced reporter light, run 1, well b":1.34e5,"control promoter light, run 1, well a":1.80e5,"control promoter light, run 1, well b":1.85e5,"uninduced reporter light, run 1, well a":7395,"Call":"inactive"}
{"target":"CG12522","amplicon":"DRSC09088","induced reporter light, run 1, well a":1.35e5,"induced reporter light, run 1, well b":1.47e5,"control promoter light, run 1, well a":1.74e5,"control promoter light, run 1, well b":1.55e5,"uninduced reporter light, run 1, well a":9415,"Call":"inactive"}
{"target":"Prosbeta7","amplicon":"DRSC12186","induced reporter light, run 1, well a":39185,"induced reporter light, run 1, well b":33290,"control promoter light, run 1, well a":23332,"control promoter light, run 1, well b":21720,"uninduced reporter light, run 1, well a":3255,"Call":"inactive"}
{"target":"lace","amplicon":"DRSC03564","induced reporter light, run 1, well a":2.15e5,"induced reporter light, run 1, well b":2.18e5,"control promoter light, run 1, well a":1.65e5,"control promoter light, run 1, well b":1.76e5,"uninduced reporter light, run 1, well a":12528,"Call":"inactive"}
{"target":"Dtd","amplicon":"DRSC15362","induced reporter light, run 1, well a":94235,"induced reporter light, run 1, well b":1.01e5,"control promoter light, run 1, well a":93740,"control promoter light, run 1, well b":83580,"uninduced reporter light, run 1, well a":5888,"Call":"inactive"}
